Source: article PMC7450955
No constants are given. Whether binding was seen depends on the method and setting. In cells and extracts the contact can be indirect. For some of these results: Binding calls can cover weak binding; strength is not graded here.

Key:
Assay in all cases: co-IP; NLRP12 and FLAG-tagged APOL1 constructs cotransfected into HeLa cells; APOL1 immunoprecipitated with anti-FLAG antibodies; western analysis for NLRP12
APOL1-B1-FLAG (human) = target: APOL1-B1-FLAG (human)
[1] = target: APOL1-B3-G0 C-del (C-terminal SRA binding domain deleted) (human)
[2] = target: APOL1-B3-FLAG (wild type, G0) (human)
APOL1-B3-G2-FLAG (human) = target: APOL1-B3-G2-FLAG (human)
APOL1-B3-G1-FLAG (human) = target: APOL1-B3-G1-FLAG (human)
APOL1-C-FLAG (human) = target: APOL1-C-FLAG (human)
[3] = target: APOL1-B3-G0 M-del (membrane-addressing domain deleted) (human)

binding (APOL1-B1-FLAG (human)): no binding | binding [1]: binds | binding [2]: binds | binding (APOL1-B3-G2-FLAG (human)): binds | binding (APOL1-B3-G1-FLAG (human)): binds | binding (APOL1-C-FLAG (human)): binds | binding [3]: binds
B1: NLRP12 (transfected) (protein, UniProt P59046 1-1061)
chain: MLRTAGRDGLCRLSTYLEELEAVELKKFKLYLGTATELGEGKIPWGSMEKAGPLEMAQLLITHFGPEEAWRLALSTFERINRKDLWERGQREDLVRDTPPGGPSSLGNQSTCLLEVSLVTPRKDPQETYRDYVRRKFRLMEDRNARLGECVNLSHRYTRLLLVKEHSNPMQVQQQLLDTGRGHARTVGHQASPIKIETLFEPDEERPEPPRTVVMQGAAGIGKSMLAHKVMLDWADGKLFQGRFDYLFYINCREMNQSATECSMQDLIFSCWPEPSAPLQELIRVPERLLFIIDGFDELKPSFHDPQGPWCLCWEEKRPTELLLNSLIRKKLLPELSLLITTRPTALEKLHRLLEHPRHVEILGFSEAERKEYFYKYFHNAEQAGQVFNYVRDNEPLFTMCFVPLVCWVVCTCLQQQLEGGGLLRQTSRTTTAVYMLYLLSLMQPKPGAPRLQPPPNQRGLCSLAADGLWNQKILFEEQDLRKHGLDGEDVSAFLNMNIFQKDINCERYYSFIHLSFQEFFAAMYYILDEGEGGAGPDQDVTRLLTEYAFSERSFLALTSRFLFGLLNEETRSHLEKSLCWKVSPHIKMDLLQWIQSKAQSDGSTLQQGSLEFFSCLYEIQEEEFIQQALSHFQVIVVSNIASKMEHMVSSFCLKRCRSAQVLHLYGATYSADGEDRARCSAGAHTLLVQLPERTVLLDAYSEHLAAALCTNPNLIELSLYRNALGSRGVKLLCQGLRHPNCKLQNLRLKRCRISSSACEDLSAALIANKNLTRMDLSGNGVGFPGMMLLCEGLRHPQCRLQMIQLRKCQLESGACQEMASVLGTNPHLVELDLTGNALEDLGLRLLCQGLRHPVCRLRTLWLKICRLTAAACDELASTLSVNQSLRELDLSLNELGDLGVLLLCEGLRHPTCKLQTLRLGICRLGSAACEGLSVVLQANHNLRELDLSFNDLGDWGLWLLAEGLQHPACRLQKLWLDSCGLTAKACENLYFTLGINQTLTDLYLTNNALGDTGVRLLCKRLSHPGCKLRVLWLFGMDLNKMTHSRLAALRVTKPYLDIGC
